# Laboratory results from article doi:10.1101/2023.07.22.550030.
# Protein sequences, listed by entry. Tags and fused reporters are not part of them. Lines headed by an entry give the natural chain unless they say otherwise; changes in a name come on top. Chains listed by the source or under a name are the forms on record and can include a tag or linker.
# UniProt Q9BUJ2: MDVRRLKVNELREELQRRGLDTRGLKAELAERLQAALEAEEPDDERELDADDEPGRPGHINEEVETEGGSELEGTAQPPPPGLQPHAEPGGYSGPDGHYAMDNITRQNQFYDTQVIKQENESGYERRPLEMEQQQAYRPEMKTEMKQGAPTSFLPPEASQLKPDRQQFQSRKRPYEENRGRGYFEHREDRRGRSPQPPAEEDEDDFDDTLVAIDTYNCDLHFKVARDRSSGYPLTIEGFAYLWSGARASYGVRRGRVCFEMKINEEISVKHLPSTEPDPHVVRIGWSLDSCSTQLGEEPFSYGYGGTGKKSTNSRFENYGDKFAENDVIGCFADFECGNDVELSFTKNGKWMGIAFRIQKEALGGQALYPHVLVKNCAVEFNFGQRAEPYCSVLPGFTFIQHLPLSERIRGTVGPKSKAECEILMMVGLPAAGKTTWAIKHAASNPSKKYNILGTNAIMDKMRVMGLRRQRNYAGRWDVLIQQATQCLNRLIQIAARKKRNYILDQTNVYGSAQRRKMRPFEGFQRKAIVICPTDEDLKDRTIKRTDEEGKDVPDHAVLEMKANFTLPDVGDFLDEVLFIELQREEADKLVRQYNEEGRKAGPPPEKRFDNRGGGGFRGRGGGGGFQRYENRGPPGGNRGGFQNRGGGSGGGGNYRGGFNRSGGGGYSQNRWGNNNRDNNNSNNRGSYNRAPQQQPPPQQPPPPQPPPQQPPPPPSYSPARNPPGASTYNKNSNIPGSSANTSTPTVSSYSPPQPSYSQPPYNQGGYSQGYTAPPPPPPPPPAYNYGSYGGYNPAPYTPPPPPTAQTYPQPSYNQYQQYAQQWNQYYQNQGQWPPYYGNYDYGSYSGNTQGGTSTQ
# FLAG-tagged hnRNPUL1 ΔWA (Walker A motif mutant) (Q9BUJ2, form named): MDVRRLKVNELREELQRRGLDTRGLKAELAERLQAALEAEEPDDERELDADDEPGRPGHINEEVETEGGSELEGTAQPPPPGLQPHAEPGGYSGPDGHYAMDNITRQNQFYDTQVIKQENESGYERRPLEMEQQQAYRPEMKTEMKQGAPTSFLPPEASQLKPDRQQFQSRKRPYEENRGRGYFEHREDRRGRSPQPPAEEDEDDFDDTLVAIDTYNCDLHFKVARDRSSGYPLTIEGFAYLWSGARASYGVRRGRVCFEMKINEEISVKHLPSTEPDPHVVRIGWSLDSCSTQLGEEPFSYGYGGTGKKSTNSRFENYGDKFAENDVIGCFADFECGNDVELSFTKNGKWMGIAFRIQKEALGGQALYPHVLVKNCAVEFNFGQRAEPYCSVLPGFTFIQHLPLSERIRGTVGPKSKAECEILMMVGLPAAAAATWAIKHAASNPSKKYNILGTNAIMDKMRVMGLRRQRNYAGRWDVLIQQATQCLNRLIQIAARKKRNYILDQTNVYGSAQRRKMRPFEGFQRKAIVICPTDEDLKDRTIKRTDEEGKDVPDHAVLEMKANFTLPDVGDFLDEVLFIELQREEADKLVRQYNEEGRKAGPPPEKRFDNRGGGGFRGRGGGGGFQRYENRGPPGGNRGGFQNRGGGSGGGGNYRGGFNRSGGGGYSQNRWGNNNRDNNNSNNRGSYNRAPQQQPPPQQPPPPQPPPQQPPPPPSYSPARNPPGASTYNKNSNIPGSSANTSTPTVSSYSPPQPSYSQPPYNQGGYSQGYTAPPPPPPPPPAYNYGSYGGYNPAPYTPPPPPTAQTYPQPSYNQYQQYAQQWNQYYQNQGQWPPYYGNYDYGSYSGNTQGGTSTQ
# UniProt Q01844: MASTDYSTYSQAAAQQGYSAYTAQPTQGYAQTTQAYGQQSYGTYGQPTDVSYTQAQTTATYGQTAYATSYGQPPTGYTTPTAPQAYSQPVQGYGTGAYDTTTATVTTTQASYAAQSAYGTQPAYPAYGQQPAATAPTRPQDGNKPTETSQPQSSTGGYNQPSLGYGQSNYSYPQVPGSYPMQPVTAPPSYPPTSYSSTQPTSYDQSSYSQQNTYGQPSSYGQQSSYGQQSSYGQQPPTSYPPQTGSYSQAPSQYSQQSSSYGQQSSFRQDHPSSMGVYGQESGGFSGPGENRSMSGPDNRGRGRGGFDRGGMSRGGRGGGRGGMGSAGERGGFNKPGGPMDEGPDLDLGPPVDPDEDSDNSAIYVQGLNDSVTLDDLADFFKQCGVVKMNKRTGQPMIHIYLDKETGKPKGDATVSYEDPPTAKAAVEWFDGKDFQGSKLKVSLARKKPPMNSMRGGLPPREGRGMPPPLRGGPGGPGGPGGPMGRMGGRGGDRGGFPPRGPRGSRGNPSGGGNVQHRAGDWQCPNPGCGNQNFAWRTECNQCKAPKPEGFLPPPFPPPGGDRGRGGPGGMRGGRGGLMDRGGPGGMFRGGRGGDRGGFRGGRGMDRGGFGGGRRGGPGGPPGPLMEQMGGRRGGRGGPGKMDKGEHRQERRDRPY
# UniProt P35637: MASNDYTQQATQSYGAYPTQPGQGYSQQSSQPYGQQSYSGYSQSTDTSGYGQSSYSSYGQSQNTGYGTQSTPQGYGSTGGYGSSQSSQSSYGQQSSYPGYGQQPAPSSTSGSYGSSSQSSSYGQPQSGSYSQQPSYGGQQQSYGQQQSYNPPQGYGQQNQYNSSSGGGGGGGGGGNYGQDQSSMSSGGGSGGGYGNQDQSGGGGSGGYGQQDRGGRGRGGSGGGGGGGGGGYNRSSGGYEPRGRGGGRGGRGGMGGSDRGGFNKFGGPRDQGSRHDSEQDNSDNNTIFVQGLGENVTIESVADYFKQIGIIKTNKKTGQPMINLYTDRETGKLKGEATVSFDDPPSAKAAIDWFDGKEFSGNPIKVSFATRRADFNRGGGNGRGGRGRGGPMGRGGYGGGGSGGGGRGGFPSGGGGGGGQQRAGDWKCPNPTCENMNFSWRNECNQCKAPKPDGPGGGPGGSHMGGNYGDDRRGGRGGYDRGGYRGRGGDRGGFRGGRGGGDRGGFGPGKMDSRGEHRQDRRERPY
# UniProt Q5TA45: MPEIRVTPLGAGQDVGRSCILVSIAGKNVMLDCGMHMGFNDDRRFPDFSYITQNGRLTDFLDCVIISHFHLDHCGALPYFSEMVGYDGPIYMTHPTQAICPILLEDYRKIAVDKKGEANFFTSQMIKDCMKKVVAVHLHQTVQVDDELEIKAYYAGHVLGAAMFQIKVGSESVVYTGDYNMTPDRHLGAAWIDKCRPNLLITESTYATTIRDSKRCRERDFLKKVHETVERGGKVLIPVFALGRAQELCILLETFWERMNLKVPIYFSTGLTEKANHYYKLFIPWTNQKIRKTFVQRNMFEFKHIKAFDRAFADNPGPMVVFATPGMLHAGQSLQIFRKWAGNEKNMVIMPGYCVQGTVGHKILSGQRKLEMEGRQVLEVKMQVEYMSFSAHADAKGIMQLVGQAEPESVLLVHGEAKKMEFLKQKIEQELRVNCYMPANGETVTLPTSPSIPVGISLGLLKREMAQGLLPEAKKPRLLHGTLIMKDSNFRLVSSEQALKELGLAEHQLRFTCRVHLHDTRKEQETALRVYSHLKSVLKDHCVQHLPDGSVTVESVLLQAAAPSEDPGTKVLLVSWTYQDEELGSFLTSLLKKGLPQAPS
# No constants are given. Whether binding was seen depends on the method and setting. Binding seen in cells or lysates may run through a third protein. Some entries that bind do so weakly or less than the wild type.
# Legend:
# [1] = molecular target: FLAG-tagged hnRNPUL1 WT (full length) (human) (UniProt Q9BUJ2); test: co-IP
# [2] = molecular target: FLAG-tagged hnRNPUL1 ΔWA (Walker A motif mutant) (human) (UniProt Q9BUJ2); test: co-IP
Substance,binding [1],binding [2]
EWSR1 (from UniProt Q01844 1-656),binds,binds
FUS (from UniProt P35637 1-526),binds,binds
INTS11 (from UniProt Q5TA45 1-600) (enzyme),binds,binds
